Assay results as given in the supplement of paper PMC11546906.
Structures can show the parent of a compound that is named as a salt. This is one part of the list. Repeats in this data set agree poorly, so a single value says little.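 A screen tested FDA-approved drugs combined with one-eighth-MIC colistin against a clinical mcr-1-positive, multidrug-resistant E. coli isolate, measuring OD600 at 24 h. Controls were untreated bacteria (growth) and broth alone (blank). An OD600 under 0.2 marked a combination as active.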

System: Escherichia coli 42 (mcr-1-positive clinical isolate)
Assay: OD600 after 24 h growth with compound plus colistin (absorbance units (OD600)); higher = more bacterial growth (less inhibition)
Settings: first compound 25 µM; colistin concentration 0.5 ug/mL; incubation time 24 h; 37 °C

OD600, inactive:
CNCCCC12CCC(c3ccccc31)c1ccccc12 [Maprotiline hydrochloride] + CCC(C)CCCC(=O)N[C@@H](CCN)C(=O)N[C@H](C(=O)N[C@@H](CCN)C(=O)N[C@H]1CCNC(=O)[C@H]([C@@H](C)O)NC(=O)[C@H](CCN)NC(=O)[C@H](CCN)NC(=O)[C@H](CC(C)C)NC(=O)[C@@H](CC(C)C)NC(=O)[C@H](CCN)NC1=O)[C@@H](C)O [colistin] 1.06, c1ccc(CN(CC2=NCCN2)c2ccccc2)cc1 [Antazoline hydrochloride] + CCC(C)CCCC(=O)N[C@@H](CCN)C(=O)N[C@H](C(=O)N[C@@H](CCN)C(=O)N[C@H]1CCNC(=O)[C@H]([C@@H](C)O)NC(=O)[C@H](CCN)NC(=O)[C@H](CCN)NC(=O)[C@H](CC(C)C)NC(=O)[C@@H](CC(C)C)NC(=O)[C@H](CCN)NC1=O)[C@@H](C)O [colistin] 1.14, CC(C(=O)O)c1ccc2c(c1)[nH]c1ccc(Cl)cc12 (centres undefined) [Carprofen] + CCC(C)CCCC(=O)N[C@@H](CCN)C(=O)N[C@H](C(=O)N[C@@H](CCN)C(=O)N[C@H]1CCNC(=O)[C@H]([C@@H](C)O)NC(=O)[C@H](CCN)NC(=O)[C@H](CCN)NC(=O)[C@H](CC(C)C)NC(=O)[C@@H](CC(C)C)NC(=O)[C@H](CCN)NC1=O)[C@@H](C)O [colistin] 0.755, CC(=O)NC[C@H]1CN(c2ccc(N3CCOCC3)c(F)c2)C(=O)O1 [Linezolid] + CCC(C)CCCC(=O)N[C@@H](CCN)C(=O)N[C@H](C(=O)N[C@@H](CCN)C(=O)N[C@H]1CCNC(=O)[C@H]([C@@H](C)O)NC(=O)[C@H](CCN)NC(=O)[C@H](CCN)NC(=O)[C@H](CC(C)C)NC(=O)[C@@H](CC(C)C)NC(=O)[C@H](CCN)NC1=O)[C@@H](C)O [colistin] 1.07, COc1cc(N2CCC(N(C)C)CC2)ccc1Nc1ncc(Cl)c(Nc2ccccc2P(C)(C)=O)n1 + CCC(C)CCCC(=O)N[C@@H](CCN)C(=O)N[C@H](C(=O)N[C@@H](CCN)C(=O)N[C@H]1CCNC(=O)[C@H]([C@@H](C)O)NC(=O)[C@H](CCN)NC(=O)[C@H](CCN)NC(=O)[C@H](CC(C)C)NC(=O)[C@@H](CC(C)C)NC(=O)[C@H](CCN)NC1=O)[C@@H](C)O [colistin] 1.11, CC1(C)CCC(CN2CCN(c3ccc(C(=O)NS(=O)(=O)c4ccc(NCC5CCOCC5)c([N+](=O)[O-])c4)c(Oc4cnc5[nH]ccc5c4)c3)CC2)=C(c2ccc(Cl)cc2)C1 [Venetoclax] + CCC(C)CCCC(=O)N[C@@H](CCN)C(=O)N[C@H](C(=O)N[C@@H](CCN)C(=O)N[C@H]1CCNC(=O)[C@H]([C@@H](C)O)NC(=O)[C@H](CCN)NC(=O)[C@H](CCN)NC(=O)[C@H](CC(C)C)NC(=O)[C@@H](CC(C)C)NC(=O)[C@H](CCN)NC1=O)[C@@H](C)O [colistin] 0.948, Cc1cccc(Nc2ccncc2S(=O)(=O)NC(=O)NC(C)C)c1 [Torsemide] + CCC(C)CCCC(=O)N[C@@H](CCN)C(=O)N[C@H](C(=O)N[C@@H](CCN)C(=O)N[C@H]1CCNC(=O)[C@H]([C@@H](C)O)NC(=O)[C@H](CCN)NC(=O)[C@H](CCN)NC(=O)[C@H](CC(C)C)NC(=O)[C@@H](CC(C)C)NC(=O)[C@H](CCN)NC1=O)[C@@H](C)O [colistin] 0.769, CCCN[C@H]1CCc2nc(N)sc2C1 [Pramipexole] + CCC(C)CCCC(=O)N[C@@H](CCN)C(=O)N[C@H](C(=O)N[C@@H](CCN)C(=O)N[C@H]1CCNC(=O)[C@H]([C@@H](C)O)NC(=O)[C@H](CCN)NC(=O)[C@H](CCN)NC(=O)[C@H](CC(C)C)NC(=O)[C@@H](CC(C)C)NC(=O)[C@H](CCN)NC1=O)[C@@H](C)O [colistin] 1.06, CC(=O)NO [Acetohydroxamic acid] + CCC(C)CCCC(=O)N[C@@H](CCN)C(=O)N[C@H](C(=O)N[C@@H](CCN)C(=O)N[C@H]1CCNC(=O)[C@H]([C@@H](C)O)NC(=O)[C@H](CCN)NC(=O)[C@H](CCN)NC(=O)[C@H](CC(C)C)NC(=O)[C@@H](CC(C)C)NC(=O)[C@H](CCN)NC1=O)[C@@H](C)O [colistin] 1.15
